The results in this text go back to PMC12040169 (PLOS Biology, 2025).

Some of the results follow.

The subject of this assay is T1, CTL2-GFP (C. trachomatis L2/434/Bu, GFP-expressing).
T1 construct: L2/434/Bu, GFP-expressing
Also noted: species or system HeLa; Intracellular C. trachomatis growth in HeLa cells, bulk GFP fluorescence relative to DMSO. The note with it: bulk GFP, single well; 28.5 h, 10 µM; inhibitor.
With `Cc1ccc(CN2CCCC(n3c(=O)oc4ccccc43)C2)o1` (centres unmarked) [CBK284871], the “% of control remaining” value is on record as 128.291%. For `CCN1CCN(C(=O)c2ccc(C)c(S(=O)(=O)Nc3cccc(C)c3)c2)CC1` [CBK268226] the value was 91.4984%.

For `Nc1ncc(-c2ccc(-c3ccccc3)cc2)nc1NC1CCCCC1` [CBK063572], the “% of control remaining” value stood at 136.818%.

`CN(C)[C@@H]1CN(Cc2ccc(O)cc2)C[C@H]1c1cn(C)c2ccccc12` [CBK284952]: the “% of control remaining” value turned out to be 118.745%. For `Cc1cc(C)c(S(=O)(=O)N(CC(=O)O)C2CCCCC2)c(C)c1` [CBK266663] the value was 143.363%; for `CCCc1cc(O)nc(SC(C)C(=O)N2CCOCC2)n1` (centres unmarked) [CBK305030], 132.549%.

Turning to `N#C/C(=C\c1ccccc1O)C(=O)Nc1sc2c(c1C(N)=O)CCCC2` [CBK263644], the “% of control remaining” value was 78.5852%.

On to `CCOc1ccc(N2C(=O)CC(N3CCN(CCc4ccncc4)CC3)C2=O)cc1` (centres unmarked) [CBK269930], for which the “% of control remaining” value is listed as 111.493%. For `COc1ccccc1Cc1cccc(C2CCCN2C(=O)c2ccc(F)cc2)n1` (centres unmarked) [CBK286239] the value was 112.885%. Take `CCn1cc(CN2CCN(C(=O)C3C4CCCCC43)CC2)c(C)n1` (centres unmarked) [CBK281545]: the “% of control remaining” value is 116.797%. For `O=C(NCc1ccc(Cl)cc1)N1CCCC(CO)C1` (centres unmarked) [CBK156053] the value was 114.216%; for `CCS(=O)(=O)N1CCC(C(=O)NC2CC(C)(C)Oc3ccccc32)CC1` (centres unmarked) [CBK304364], 136.692%; for `COCCCN(Cc1ccccn1)Cc1cc(F)ccc1F` [CBK282950], 97.3601%.

`CC(=O)c1ccc(NC(=O)C(C)SCc2ccc(C)cc2)cc1` (centres unmarked) [CBK296616]: the “% of control remaining” value was 133.458%.

On to `C#CCN(C)CC[C@@H]1CC[C@H](O)[C@@H](C(=O)NC(C)C)O1` [CBK288718], for which the “% of control remaining” value came out at 103.972%. For `O=C(Cc1ccc(F)cc1)N1CCC(c2cc3cnccc3[nH]2)CC1` [CBK283454] the value was 134.052%. In the case of `COC(=O)C(C)(C)C1c2cc(Br)ccc2OC(=O)C1C(=O)c1ccccc1` (centres unmarked) [CBK266690] it was 151.675%; in that of `CCOC(=O)c1[nH]c2ccccc2c1NS(=O)(=O)c1ccc(NC(C)=O)cc1` [CBK047411], 110.758%; in that of `O=C(Nc1nc2c(F)cc(F)cc2s1)c1ccc(F)cc1` [CBK287617], 135.338%. In the case of `CCOC(=O)c1c(CN2CCCC2)nc2c3ccccc3ccn12` [CBK267521C], the “% of control remaining” value was 110.146%. For `CC1CCc2c(sc(NC(=S)NC(=O)c3ccc4c(c3)OCCO4)c2C(N)=O)C1` (centres unmarked) [CBK266370] the value was 202.502%; for `Cc1cc(OCC(=O)Nc2ccc(S(=O)(=O)N3CCOCC3)cc2)ccc1[N+](=O)[O-]` [CBK268114], 120.826%. For `COC(=O)C(O)(CC(=O)Nc1ccc(C)c(F)c1)C(F)(F)F` (centres unmarked) [CBK267440] the value was 134.804%; for `O=C(O)CN1C(=O)/C(=C/C2=Cc3ccccc3OC2)SC1=S` [CBK264787], 100%.

With `O=c1cc(N2CCOCC2)cnn1CCCCOc1ccccc1` [CBK307327], the “% of control remaining” value is reported as 136.462%. In the case of `CN1CCN(CC(=O)N/N=C/C2CC=CCC2)CC1` (centres unmarked) [CBK019340] it was 149.272%; in that of `Cc1ccc(-n2c(=O)[nH]c3c(C(N)=O)nc(-c4ccccc4)nc32)cc1C` [CBK287718], 119.303%; in that of `CCOC(=O)c1cnn2c(O)cc(CN3CCCC3c3ccsc3)nc12` (centres unmarked) [CBK305647], 78.4919%. For `Nc1cccc(-c2nccnc2NCc2cccnc2)c1` [CBK089310] the value was 98.817%; for `CN(C)S(=O)(=O)c1ccc(NC(=O)c2ccc(-c3ccccc3)cc2)cc1` [CBK267322], 135.234%. For `NC(=O)c1c(NC(=S)NC(=O)c2ccccc2Br)sc2c1CCC2` [CBK265543] the value was 115.55%; for `COCCc1noc(C(C)NC(=O)Cc2cccc(O)c2)n1` (centres unmarked) [CBK307493], 147.203%. Consider `CC(C)COc1ccc(-c2nonc2NC(=O)c2ccccc2F)cc1` [CBK299831], for which the “% of control remaining” value is listed as 114.604%. For `Cc1nc(C2CCN(C(=O)c3cscn3)CC2)c2sccn12` [CBK285240] the value was 109.206%.

As to `COc1cccc(Cn2c(=O)[nH]n(-c3ccccc3)c2=O)c1` [CBK122771], the “% of control remaining” value is 92.6473%.

For the molecule `NC(=O)CN1CCC[C@@H]2NC(=O)COc3ccccc3C(=O)N[C@@H]3CCOC[C@@H]3C/C=C/C[C@@H]21` [CBK292041], the “% of control remaining” value amounted to 128.084%.

For `O=C(NC(C(=O)O)c1ccccc1)NC12CC3CC(CC(C3)C1)C2` (centres unmarked) [CBK268313], the “% of control remaining” value was 103.162%. In the case of `c1ccc(-c2csc(Nc3cccnc3)n2)nc1` [CBK267184] it was 82.4639%; in that of `CC(C)(C)NS(=O)(=O)c1ccc(OCC(=O)NCc2ccncc2)cc1` [CBK266434], 143.769%. For `Clc1ccc(OCCOc2ccccc2)nn1` [CBK176034] the value was 124.922%; for `COCc1ccc(C(=O)N2CCC(Cc3ccccc3-c3cccs3)(C(N)=O)CC2)cc1` [CBK286276], 116.947%. In the case of `O=C1CCOC[C@]2(CN(Cc3ccccc3)C[C@H]2c2ccccc2)N1` [CBK283367] it was 133.875%; in that of `O=C(N/C(=C/c1ccccc1)C(=O)N1CCCCC1)c1ccccc1` [CBK261280], 94.2186%.

As to `CC1Cc2cc(C(O)CN3CCC4CCCCC4C3)ccc2N1S(C)(=O)=O` (centres unmarked) [CBK286456], the “% of control remaining” value was determined as 94.5016%. For `O=C1CC2(CCC3C(C(=O)N4CCCC4)C32)Oc2ccccc21` (centres unmarked) [CBK284969] the value was 135.919%; for `CN1C(=O)COc2ccccc2CCCC[C@@H]2[C@H]1CCCN2C(=O)CNS(C)(=O)=O` [CBK292118], 94.9727%; for `CCOC(=O)C1CCCN(CCC(=O)Nc2cccc(C)c2)C1` (centres unmarked) [CBK264158C], 94.4023%. For `C[C@]12CN(Cc3ccccc3)C[C@H]1CNc1ccccc1C(=O)N2` [CBK282932], the “% of control remaining” value amounted to 104.011%.

In the case of `COc1cncc(-c2cncc(Nc3cc(OC)c(OC)c(OC)c3)n2)c1` [CBK065397], the “% of control remaining” value came out at 126.856%. In the case of `Cn1nc2c(cc1=O)CN(C(=O)c1ccc3cc[nH]c3c1)CC2` [CBK304343] it was 70.983%.
